From article PMC11780389
These are yes or no findings as the source states them, for the method shown. Binding seen in cells or lysates may run through a third protein. A yes stands for co-enrichment or nearness to the bait. Other partners may have been found.

The chains behind the UniProt entries cited, without tags or fusion partners. Residues count along the entry.
UniProt P16390: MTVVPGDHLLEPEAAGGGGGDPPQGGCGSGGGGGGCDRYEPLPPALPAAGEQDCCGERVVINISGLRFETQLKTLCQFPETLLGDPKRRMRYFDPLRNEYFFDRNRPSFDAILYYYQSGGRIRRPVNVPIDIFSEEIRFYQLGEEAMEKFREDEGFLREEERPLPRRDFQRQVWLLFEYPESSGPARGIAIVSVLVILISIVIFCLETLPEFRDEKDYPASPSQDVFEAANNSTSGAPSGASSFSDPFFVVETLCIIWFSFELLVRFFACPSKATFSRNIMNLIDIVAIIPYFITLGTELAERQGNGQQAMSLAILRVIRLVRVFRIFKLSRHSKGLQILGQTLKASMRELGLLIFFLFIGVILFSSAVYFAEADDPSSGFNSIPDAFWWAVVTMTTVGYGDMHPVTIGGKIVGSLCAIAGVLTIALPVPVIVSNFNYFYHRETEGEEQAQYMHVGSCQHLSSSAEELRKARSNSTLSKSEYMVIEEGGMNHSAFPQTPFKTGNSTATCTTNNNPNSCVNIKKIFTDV
UniProt A5YKK6: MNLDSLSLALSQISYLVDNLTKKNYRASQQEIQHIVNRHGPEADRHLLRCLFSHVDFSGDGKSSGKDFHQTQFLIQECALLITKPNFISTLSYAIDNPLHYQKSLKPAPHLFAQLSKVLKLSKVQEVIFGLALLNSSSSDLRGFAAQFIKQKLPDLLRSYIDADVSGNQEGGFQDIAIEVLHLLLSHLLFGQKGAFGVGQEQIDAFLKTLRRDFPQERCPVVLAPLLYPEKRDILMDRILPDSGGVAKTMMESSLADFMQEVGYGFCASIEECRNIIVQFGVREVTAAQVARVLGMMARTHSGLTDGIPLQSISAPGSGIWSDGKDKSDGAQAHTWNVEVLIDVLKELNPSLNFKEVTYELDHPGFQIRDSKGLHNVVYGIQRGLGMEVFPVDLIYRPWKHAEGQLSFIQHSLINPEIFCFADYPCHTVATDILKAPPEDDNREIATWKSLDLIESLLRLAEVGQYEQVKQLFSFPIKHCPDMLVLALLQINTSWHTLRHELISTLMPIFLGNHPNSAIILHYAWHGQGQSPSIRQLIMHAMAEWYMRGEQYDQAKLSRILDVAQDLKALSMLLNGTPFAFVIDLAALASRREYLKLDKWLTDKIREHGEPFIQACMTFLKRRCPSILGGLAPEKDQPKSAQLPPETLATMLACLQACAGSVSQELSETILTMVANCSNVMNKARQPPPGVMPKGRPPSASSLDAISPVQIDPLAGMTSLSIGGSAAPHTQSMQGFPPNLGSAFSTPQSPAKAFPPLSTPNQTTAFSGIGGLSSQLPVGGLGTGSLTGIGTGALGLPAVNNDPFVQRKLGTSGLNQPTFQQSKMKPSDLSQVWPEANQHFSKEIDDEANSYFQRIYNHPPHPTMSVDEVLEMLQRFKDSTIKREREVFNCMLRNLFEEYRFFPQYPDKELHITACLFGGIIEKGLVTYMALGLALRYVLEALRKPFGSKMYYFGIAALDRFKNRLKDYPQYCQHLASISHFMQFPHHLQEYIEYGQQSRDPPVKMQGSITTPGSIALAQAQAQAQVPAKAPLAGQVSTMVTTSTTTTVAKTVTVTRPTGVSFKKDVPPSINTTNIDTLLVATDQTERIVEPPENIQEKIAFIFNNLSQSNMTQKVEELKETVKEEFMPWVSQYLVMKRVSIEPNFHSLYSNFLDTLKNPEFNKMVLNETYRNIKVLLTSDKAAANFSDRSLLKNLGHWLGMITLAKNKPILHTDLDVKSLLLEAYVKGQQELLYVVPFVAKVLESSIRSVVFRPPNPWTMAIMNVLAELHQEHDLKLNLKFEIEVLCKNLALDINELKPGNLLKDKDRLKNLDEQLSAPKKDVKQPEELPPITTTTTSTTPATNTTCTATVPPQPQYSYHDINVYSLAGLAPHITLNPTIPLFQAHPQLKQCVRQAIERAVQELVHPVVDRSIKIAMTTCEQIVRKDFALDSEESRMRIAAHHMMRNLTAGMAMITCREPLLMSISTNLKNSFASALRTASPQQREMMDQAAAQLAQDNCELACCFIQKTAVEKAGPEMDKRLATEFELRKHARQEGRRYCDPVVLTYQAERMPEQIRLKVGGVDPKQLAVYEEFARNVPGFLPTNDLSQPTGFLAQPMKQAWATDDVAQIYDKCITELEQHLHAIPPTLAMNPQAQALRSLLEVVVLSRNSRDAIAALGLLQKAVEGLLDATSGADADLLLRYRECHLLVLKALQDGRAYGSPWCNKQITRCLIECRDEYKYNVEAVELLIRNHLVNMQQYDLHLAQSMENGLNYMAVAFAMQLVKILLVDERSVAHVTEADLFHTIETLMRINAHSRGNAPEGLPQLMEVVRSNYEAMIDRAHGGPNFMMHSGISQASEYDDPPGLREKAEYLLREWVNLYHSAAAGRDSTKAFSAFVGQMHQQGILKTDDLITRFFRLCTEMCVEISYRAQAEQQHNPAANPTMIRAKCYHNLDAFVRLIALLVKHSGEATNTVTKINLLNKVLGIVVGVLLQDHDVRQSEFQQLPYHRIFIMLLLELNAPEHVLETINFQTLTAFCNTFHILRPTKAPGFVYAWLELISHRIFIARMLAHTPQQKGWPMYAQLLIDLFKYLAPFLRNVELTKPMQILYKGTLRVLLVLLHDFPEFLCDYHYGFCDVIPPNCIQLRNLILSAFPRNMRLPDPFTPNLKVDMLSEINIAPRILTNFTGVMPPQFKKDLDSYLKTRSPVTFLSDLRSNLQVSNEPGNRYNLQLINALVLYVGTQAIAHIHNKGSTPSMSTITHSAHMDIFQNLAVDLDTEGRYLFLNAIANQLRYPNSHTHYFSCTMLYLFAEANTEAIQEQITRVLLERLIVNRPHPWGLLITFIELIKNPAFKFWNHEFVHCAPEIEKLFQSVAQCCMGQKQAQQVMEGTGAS
UniProt P34913: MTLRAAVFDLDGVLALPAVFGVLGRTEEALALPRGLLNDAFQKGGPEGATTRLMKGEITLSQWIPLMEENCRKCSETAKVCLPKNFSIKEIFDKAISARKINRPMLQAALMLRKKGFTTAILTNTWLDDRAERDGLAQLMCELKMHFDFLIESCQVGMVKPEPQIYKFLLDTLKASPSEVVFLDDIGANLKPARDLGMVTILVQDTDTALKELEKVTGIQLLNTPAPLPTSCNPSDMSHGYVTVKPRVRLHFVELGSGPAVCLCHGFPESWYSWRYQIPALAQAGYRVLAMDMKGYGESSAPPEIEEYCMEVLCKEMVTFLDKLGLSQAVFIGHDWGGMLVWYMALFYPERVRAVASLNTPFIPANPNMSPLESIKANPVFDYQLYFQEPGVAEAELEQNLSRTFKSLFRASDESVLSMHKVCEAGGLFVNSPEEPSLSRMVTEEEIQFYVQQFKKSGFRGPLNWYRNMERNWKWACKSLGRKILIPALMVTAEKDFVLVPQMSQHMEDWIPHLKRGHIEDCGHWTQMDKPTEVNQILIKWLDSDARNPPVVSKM
UniProt P38647, residues 47-679: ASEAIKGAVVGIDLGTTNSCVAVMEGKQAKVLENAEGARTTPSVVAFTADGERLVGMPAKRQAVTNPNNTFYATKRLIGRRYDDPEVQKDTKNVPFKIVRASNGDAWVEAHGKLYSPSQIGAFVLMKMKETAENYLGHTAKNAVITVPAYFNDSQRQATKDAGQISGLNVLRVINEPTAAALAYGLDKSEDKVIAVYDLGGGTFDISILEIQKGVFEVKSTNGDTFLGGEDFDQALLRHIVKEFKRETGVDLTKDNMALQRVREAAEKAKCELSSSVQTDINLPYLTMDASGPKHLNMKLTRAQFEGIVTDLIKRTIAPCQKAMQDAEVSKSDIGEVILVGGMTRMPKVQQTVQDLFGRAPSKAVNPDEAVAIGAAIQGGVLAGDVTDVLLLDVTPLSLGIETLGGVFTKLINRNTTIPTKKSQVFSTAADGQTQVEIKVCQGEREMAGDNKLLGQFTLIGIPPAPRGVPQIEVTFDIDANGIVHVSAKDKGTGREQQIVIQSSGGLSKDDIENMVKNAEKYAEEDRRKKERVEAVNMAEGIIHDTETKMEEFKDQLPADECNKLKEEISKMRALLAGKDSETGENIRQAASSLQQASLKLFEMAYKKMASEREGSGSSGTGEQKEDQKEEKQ
UniProt Q9D0G0: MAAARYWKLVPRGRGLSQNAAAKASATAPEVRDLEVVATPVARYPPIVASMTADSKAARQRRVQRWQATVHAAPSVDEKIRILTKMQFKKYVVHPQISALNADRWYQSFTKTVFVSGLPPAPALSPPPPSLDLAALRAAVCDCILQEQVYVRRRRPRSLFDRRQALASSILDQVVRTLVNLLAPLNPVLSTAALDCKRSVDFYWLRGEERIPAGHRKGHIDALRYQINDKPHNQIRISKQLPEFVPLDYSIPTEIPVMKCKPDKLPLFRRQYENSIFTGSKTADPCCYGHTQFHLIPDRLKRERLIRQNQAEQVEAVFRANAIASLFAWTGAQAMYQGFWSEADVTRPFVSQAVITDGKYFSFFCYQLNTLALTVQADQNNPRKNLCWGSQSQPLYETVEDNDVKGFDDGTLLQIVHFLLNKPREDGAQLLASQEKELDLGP
UniProt P03899: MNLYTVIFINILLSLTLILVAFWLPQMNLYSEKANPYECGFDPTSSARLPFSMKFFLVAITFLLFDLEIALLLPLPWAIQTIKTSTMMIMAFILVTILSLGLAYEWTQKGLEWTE
UniProt P46460: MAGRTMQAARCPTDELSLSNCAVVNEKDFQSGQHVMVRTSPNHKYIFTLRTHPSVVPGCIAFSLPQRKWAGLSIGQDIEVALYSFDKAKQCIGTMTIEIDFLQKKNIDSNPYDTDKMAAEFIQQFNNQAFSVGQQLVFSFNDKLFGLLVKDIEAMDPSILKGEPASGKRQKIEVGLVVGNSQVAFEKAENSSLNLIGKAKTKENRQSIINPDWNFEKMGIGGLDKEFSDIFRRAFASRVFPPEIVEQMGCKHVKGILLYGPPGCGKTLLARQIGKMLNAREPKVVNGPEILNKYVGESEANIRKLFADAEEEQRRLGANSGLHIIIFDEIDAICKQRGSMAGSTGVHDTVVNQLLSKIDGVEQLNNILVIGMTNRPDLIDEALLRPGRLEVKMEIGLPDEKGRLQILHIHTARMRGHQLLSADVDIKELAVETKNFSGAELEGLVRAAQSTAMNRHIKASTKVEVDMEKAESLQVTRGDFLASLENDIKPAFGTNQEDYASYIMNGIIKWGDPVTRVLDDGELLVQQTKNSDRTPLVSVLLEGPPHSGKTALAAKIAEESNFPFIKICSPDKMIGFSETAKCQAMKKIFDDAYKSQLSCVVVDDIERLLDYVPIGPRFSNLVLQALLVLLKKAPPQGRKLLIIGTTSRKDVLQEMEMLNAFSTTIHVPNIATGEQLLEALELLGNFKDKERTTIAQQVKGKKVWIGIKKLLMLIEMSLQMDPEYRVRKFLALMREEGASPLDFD
UniProt Q9CQS8: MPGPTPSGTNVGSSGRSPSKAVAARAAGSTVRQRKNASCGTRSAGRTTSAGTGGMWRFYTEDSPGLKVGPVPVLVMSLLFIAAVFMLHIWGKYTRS
UniProt P84022: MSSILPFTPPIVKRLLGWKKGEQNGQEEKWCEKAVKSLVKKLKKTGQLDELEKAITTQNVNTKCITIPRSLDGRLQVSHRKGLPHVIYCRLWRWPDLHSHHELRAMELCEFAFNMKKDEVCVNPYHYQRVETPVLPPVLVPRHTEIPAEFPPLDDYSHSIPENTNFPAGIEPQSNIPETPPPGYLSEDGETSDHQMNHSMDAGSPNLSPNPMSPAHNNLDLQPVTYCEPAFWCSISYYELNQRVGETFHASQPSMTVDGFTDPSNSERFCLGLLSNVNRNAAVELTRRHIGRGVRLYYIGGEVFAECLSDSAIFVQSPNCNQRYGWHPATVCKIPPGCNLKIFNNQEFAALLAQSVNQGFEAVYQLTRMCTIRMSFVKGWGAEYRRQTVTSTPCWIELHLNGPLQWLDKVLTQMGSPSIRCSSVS
UniProt Q9D880, residues 22-353: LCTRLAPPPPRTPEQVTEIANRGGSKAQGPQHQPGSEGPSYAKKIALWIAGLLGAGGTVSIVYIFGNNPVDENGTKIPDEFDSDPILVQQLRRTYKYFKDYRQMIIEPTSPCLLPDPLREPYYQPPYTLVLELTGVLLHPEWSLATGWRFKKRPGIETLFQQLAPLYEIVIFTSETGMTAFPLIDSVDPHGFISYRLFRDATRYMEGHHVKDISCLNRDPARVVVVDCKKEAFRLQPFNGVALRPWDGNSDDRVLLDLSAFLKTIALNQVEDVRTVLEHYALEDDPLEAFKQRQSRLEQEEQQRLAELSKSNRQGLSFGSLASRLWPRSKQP
UniProt P31996, residues 21-326: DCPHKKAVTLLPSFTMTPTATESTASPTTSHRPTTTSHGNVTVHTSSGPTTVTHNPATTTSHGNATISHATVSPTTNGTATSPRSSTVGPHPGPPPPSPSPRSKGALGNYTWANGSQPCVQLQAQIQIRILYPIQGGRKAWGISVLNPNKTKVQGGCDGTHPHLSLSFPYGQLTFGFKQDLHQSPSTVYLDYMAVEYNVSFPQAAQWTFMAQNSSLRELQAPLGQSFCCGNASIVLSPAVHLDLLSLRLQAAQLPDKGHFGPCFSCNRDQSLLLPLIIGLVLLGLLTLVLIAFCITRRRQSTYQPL

What was measured:
[1] = molecular target: Kv1.3-TurboID fusion in BV-2 microglia (N-terminal or C-terminal fusion; the sentence does not tell which) (UniProt P16390); assay: proximity labelling; TurboID fused to Kv1.3 (N-term, C-term, C-term ΔPDZ), stably transduced BV-2 cells; LPS 100 ng/ml or PBS for 24 h, 200 uM biotin for the last 1 h; lysis in 8 M urea; streptavidin magnetic beads; label-free MS, normalised to TurboID; compared with untransduced cells, global TurboID, N- against C-terminal fusion, LPS against PBS, C-term against C-term ΔPDZ; n = 3
[2] = molecular target: Kv1.3 C-term Fusion (TurboID on the C terminus of Kv1.3), in HEK-293 cells (UniProt P16390); assay: proximity labelling; TurboID fused to the N or C terminus of Kv1.3, transfected into HEK-293 cells for 24 h, 200 uM biotin for 24 h; lysis in 8 M urea; biotinylated proteins enriched on streptavidin magnetic beads; label-free MS, normalised to TurboID; compared with non-TurboID control and N- against C-terminal fusion; n = 3
[3] = molecular target: Kv1.3 N-term Fusion (TurboID on the N terminus of Kv1.3), in HEK-293 cells (UniProt P16390); assay: as above
[4] = molecular target: Kv1.3-TurboID fusion in HEK-293 cells (N-terminal or C-terminal fusion; the sentence does not tell which) (UniProt P16390); assay: as above
[5] = molecular target: Kv1.3 C-term Fusion (TurboID on the C terminus of Kv1.3), in BV-2 microglia (UniProt P16390); assay: proximity labelling; TurboID fused to Kv1.3 (N-term, C-term, C-term ΔPDZ), stably transduced BV-2 cells; LPS 100 ng/ml or PBS for 24 h, 200 uM biotin for the last 1 h; lysis in 8 M urea; streptavidin magnetic beads; label-free MS, normalised to TurboID; compared with untransduced cells, global TurboID, N- against C-terminal fusion, LPS against PBS, C-term against C-term ΔPDZ; n = 3
[6] = molecular target: Kv1.3 N-term Fusion (TurboID on the N terminus of Kv1.3), in BV-2 microglia (UniProt P16390); assay: as above
[7] = molecular target: Kv1.3 C-term Fusion (TurboID on the C terminus of Kv1.3), in BV-2 microglia (UniProt P16390); assay: proximity labelling; adapted Luminex assay on total lysates of BV-2 Kv1.3-TurboID lines without enrichment: analyte caught on antibody beads, the biotinylated detection antibody left out, biotin put on by TurboID read with streptavidin-phycoerythrin; with or without LPS

ABCA1 (from UniProt P41233 1-2261)
binding [1]: binds

CNOT1 (from UniProt A5YKK6 1-2376)
binding [2]: binds

EPHX2 (from UniProt P34913 1-555)
binding [3]: binds

HSPA5 (BV-2) (from UniProt P20029 20-655)
binding [1]: binds

HSPA5 (HEK-293) (from UniProt P11021 19-654)
binding [4]: binds

HSPA9 (from UniProt P38647 47-679)
binding [5]: binds

ITGB1 (from UniProt P09055 21-798)
binding [1]: binds

MRPS30 (from UniProt Q9D0G0 1-442)
binding [1]: binds

MYO6 (from UniProt Q64331 1-1262)
binding [5]: binds

ND3 (from UniProt P03899 1-115)
binding [5]: binds

NPC1 (from UniProt O35604 23-1277)
binding [1]: binds

NSF (from UniProt P46460 1-744)
binding [5]: binds

NUDC (from UniProt O35685 1-332)
binding [6]: binds

SEC61A1 (from UniProt P61620 1-476)
binding [1]: binds

SEC61B (from UniProt Q9CQS8 1-96)
binding [1]: binds

SMAD3 (from UniProt P84022 1-425)
binding [2]: binds

SORL1 (from UniProt O88307 82-2215)
binding [1]: binds

SRRM2 (from UniProt Q9UQ35 1-2752)
binding [3]: binds

TIMM50, a mitochondrial translocase protein (from UniProt Q9D880 22-353)
binding [6]: binds

complement C3 (from UniProt P01027 25-1663)
binding [7]: binds | binding [5]: binds

lysosomal protein CD68 (from UniProt P31996 21-326)
binding [1]: binds
